{"sequences": {"note": "By UniProt entry, the sequences of proteins in these tests, tags left out. Where a name states a change or a piece, a line headed by the entry shows the natural chain unless it says otherwise.", "UniProt Q92621": "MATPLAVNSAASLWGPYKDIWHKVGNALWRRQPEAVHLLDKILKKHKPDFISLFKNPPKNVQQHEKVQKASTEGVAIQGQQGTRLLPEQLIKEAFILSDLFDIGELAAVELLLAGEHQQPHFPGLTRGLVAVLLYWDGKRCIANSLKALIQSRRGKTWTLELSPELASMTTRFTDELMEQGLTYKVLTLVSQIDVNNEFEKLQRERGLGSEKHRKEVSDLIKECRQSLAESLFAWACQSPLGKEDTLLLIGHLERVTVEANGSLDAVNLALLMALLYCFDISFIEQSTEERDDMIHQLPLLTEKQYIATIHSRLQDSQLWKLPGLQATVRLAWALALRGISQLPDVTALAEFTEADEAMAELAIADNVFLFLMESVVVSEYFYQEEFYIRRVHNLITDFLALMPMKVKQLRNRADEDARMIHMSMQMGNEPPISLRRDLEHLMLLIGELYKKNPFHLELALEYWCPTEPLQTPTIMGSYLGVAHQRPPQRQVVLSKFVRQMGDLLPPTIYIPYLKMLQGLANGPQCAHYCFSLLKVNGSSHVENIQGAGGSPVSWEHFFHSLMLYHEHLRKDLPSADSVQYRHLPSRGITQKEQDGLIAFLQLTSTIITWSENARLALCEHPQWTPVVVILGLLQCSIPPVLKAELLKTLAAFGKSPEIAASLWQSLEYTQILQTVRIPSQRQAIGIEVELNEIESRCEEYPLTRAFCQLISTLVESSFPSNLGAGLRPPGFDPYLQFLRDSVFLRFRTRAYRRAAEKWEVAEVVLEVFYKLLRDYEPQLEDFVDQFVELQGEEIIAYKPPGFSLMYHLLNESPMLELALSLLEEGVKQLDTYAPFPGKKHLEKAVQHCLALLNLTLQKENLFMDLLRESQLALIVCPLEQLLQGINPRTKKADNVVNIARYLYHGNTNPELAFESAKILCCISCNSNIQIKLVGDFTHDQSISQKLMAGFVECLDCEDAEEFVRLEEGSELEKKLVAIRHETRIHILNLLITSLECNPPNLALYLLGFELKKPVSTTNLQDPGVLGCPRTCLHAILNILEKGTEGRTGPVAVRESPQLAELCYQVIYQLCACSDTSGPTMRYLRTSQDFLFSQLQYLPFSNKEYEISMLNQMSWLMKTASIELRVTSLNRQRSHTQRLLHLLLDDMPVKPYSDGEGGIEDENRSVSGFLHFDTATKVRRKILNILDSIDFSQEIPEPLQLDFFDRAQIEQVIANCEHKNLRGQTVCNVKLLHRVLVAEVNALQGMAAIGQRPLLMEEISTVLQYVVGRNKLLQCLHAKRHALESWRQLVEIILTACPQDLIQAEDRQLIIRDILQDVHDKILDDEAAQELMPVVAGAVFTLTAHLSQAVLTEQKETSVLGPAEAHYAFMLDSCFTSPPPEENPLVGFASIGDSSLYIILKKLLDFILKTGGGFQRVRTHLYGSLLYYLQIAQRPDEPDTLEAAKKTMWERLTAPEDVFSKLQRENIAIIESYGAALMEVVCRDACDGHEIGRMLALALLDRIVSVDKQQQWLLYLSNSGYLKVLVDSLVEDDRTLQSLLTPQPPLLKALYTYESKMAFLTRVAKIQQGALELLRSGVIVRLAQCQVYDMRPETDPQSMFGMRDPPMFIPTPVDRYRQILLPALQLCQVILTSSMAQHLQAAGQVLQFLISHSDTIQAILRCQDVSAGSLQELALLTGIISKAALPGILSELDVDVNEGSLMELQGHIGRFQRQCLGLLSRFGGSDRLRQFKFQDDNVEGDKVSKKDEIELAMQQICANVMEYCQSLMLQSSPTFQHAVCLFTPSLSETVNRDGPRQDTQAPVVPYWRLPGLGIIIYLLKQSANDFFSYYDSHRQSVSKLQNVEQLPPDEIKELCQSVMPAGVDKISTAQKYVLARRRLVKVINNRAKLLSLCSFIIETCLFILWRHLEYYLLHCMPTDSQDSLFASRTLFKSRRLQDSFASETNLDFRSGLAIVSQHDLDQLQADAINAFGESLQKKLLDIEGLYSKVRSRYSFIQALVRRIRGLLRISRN", "UniProt Q8TEA1": "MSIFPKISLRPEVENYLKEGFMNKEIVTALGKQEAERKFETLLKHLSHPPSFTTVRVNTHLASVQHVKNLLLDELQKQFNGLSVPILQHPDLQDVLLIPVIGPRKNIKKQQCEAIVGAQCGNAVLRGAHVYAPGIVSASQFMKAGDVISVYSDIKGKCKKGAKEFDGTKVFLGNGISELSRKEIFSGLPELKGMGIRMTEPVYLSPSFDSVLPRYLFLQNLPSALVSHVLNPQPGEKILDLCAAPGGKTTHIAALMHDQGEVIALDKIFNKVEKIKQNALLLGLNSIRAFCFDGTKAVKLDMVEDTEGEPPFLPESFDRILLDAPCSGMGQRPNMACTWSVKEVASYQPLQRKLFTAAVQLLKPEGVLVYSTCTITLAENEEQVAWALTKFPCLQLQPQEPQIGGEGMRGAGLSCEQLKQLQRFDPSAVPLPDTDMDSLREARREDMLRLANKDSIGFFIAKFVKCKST", "UniProt Q8TCD5": "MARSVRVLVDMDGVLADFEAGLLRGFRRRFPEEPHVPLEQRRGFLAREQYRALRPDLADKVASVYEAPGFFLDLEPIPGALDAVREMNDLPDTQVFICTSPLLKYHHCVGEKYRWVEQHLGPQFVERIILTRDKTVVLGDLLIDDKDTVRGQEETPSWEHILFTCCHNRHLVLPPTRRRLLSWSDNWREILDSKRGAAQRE", "UniProt Q92600, whole entry": "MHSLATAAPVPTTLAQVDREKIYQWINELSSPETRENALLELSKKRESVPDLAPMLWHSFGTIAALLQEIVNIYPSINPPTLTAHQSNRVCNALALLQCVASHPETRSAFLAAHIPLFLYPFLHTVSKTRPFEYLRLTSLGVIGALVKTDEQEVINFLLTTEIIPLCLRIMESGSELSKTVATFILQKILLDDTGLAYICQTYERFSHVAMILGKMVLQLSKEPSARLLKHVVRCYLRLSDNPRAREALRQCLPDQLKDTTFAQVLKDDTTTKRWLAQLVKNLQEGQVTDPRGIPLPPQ", "UniProt Q92738": "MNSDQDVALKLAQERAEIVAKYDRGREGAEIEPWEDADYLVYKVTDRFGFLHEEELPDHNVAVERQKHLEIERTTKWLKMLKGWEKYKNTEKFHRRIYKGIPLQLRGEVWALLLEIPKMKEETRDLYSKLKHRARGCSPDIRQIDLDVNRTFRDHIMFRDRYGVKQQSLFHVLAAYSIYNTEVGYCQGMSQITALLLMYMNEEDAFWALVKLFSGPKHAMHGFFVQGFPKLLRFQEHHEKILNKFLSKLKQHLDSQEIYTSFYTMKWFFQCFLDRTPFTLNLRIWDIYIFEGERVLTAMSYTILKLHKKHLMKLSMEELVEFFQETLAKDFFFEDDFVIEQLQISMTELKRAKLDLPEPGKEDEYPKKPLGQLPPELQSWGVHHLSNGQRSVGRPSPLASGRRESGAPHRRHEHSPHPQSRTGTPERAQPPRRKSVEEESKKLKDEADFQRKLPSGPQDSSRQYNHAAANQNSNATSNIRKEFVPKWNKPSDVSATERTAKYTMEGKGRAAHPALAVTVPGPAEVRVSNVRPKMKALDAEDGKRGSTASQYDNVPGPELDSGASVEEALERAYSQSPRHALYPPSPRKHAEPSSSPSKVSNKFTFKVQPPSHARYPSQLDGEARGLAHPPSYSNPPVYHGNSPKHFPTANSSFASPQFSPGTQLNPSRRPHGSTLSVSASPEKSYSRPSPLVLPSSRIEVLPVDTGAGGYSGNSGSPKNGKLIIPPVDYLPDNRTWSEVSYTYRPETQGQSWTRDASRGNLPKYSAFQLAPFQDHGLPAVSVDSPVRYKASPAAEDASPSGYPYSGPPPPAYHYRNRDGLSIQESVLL", "UniProt Q92616, whole entry": "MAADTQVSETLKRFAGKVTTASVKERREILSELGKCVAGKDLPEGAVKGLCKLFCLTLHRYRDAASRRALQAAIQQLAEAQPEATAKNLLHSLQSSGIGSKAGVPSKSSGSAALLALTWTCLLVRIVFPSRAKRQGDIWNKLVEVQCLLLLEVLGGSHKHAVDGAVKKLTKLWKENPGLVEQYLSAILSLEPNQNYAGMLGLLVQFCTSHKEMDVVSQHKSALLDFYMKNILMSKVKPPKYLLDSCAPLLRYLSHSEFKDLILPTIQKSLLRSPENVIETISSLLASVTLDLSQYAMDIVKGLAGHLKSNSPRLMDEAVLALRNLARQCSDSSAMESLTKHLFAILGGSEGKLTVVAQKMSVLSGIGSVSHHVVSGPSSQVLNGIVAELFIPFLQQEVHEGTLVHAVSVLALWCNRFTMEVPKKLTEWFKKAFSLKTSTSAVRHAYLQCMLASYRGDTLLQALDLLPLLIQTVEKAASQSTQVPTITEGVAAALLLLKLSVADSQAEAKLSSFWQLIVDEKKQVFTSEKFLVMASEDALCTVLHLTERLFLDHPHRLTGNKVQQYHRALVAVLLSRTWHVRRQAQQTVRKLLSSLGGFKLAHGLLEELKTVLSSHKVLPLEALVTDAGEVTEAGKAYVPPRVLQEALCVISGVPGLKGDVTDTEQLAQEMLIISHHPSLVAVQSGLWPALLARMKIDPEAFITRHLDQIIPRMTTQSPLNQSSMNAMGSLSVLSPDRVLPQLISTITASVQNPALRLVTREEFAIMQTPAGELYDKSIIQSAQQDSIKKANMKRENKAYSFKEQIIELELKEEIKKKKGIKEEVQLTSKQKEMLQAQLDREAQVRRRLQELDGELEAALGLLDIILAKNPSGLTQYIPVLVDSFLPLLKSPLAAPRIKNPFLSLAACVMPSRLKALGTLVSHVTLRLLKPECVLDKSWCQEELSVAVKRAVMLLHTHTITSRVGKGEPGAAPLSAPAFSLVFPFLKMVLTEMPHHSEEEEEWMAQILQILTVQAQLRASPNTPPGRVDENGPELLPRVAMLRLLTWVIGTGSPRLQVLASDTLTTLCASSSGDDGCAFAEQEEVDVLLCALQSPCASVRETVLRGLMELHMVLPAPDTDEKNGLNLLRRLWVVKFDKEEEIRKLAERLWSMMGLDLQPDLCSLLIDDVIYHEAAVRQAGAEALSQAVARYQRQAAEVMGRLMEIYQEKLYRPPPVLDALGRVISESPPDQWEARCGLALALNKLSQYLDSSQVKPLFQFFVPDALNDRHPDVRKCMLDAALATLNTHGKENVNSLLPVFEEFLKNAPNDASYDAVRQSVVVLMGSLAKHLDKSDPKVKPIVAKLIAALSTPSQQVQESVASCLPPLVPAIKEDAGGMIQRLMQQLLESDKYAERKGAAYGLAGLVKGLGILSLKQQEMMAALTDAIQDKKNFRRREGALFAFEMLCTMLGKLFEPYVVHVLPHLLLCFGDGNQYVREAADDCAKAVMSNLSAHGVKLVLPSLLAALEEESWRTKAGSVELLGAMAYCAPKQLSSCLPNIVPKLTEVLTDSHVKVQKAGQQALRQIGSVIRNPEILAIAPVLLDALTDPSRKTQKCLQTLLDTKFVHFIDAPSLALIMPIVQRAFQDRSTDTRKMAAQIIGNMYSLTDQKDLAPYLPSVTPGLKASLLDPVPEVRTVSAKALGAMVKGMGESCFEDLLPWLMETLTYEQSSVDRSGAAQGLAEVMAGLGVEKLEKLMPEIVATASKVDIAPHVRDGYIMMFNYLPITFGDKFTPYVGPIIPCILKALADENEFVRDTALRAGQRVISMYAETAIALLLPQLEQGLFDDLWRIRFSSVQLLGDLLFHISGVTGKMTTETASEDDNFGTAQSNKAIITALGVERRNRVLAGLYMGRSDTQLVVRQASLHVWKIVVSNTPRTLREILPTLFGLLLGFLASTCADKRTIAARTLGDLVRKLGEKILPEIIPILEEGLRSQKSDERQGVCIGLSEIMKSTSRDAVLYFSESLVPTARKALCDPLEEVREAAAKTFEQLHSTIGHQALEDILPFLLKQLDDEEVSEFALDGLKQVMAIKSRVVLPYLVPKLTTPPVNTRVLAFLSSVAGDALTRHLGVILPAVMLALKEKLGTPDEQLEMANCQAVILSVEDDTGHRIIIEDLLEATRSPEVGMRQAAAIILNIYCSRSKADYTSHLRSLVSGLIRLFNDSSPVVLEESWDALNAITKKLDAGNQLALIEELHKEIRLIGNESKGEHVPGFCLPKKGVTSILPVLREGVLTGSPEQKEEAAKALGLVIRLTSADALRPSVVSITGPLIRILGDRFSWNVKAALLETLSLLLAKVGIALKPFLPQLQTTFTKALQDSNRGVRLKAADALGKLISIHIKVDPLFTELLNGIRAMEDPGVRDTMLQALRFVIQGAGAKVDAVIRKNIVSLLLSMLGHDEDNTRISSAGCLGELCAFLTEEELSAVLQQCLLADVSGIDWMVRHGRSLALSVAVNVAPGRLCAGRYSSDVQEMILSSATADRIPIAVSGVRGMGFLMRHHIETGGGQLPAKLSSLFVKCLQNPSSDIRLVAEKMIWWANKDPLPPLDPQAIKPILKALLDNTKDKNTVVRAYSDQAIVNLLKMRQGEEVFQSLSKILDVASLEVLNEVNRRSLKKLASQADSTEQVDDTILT"}, "source": "the supplement of paper PMC6411743", "compound": "Nc1ncnc2c1ncn2[C@@H]1O[C@H](COP(=O)(O)OP(=O)(O)NP(=O)(O)O)[C@@H](O)[C@H]1O [adenylyl imidodiphosphate]", "assay": "NP40-soluble protein abundance relative to vehicle (solubility fold change) (ratio); higher = more soluble protein in presence of AMP-PNP", "outline": "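Each value is a fold change relative to the detergent-processed vehicle, calculated per replicate from vsn-normalised intensities. Jurkat crude lysate received eight concentrations (0.1 to 10 mM) for 10 min at room temperature and 3 min at 37 °C, then was solubilised in 0.8% NP40 with benzonase (60 min, 4 °C). The ultracentrifuged supernatant was TMT-labelled and run by LC-MS/MS in three independent experiments.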", "note": "± gives the standard deviation of the averaged measurements. The list shows a part of the results, in another mix than the full data. Most entries show no effect beyond the scatter of the controls.", "data": [{"target": "CHMP7 (UniProt Q8WUX9)", "values": [{"measurement": "NP40-soluble protein abundance", "setting": "concentration: 0.1mM", "value": "0.948 ± 0.03"}, {"measurement": "NP40-soluble protein abundance", "setting": "concentration: 0.5mM", "value": "0.998 ± 0.031"}]}, {"target": "UniProt Q8WWW0 and related entries", "values": [{"measurement": "NP40-soluble protein abundance", "setting": "concentration: 0.1mM", "value": "1 ± 0.016"}, {"measurement": "NP40-soluble protein abundance", "setting": "concentration: 0.5mM", "value": "0.996 ± 0.019"}]}, {"target": "NUP205 (UniProt Q92621)", "values": [{"measurement": "NP40-soluble protein abundance", "setting": "concentration: 0.1mM", "value": "1.03 ± 0.013"}, {"measurement": "NP40-soluble protein abundance", "setting": "concentration: 0.5mM", "value": "0.986 ± 0.11"}]}, {"target": "TOPBP1 (UniProt Q92547)", "values": [{"measurement": "NP40-soluble protein abundance", "setting": "concentration: 0.1mM", "value": "0.99 ± 0.012"}, {"measurement": "NP40-soluble protein abundance", "setting": "concentration: 0.5mM", "value": "0.978 ± 0.03"}]}, {"target": "DNAJC9 (UniProt Q8WXX5)", "values": [{"measurement": "NP40-soluble protein abundance", "setting": "concentration: 0.1mM", "value": "1.03 ± 0.013"}, {"measurement": "NP40-soluble protein abundance", "setting": "concentration: 0.5mM", "value": "1.01 ± 0.021"}]}, {"target": "UniProt Q8WU76 and related entries", "values": [{"measurement": "NP40-soluble protein abundance", "setting": "concentration: 0.1mM", "value": "0.962 ± 0.072"}, {"measurement": "NP40-soluble protein abundance", "setting": "concentration: 0.5mM", "value": "0.958 ± 0.11"}]}, {"target": "GGH (UniProt Q92820)", "values": [{"measurement": "NP40-soluble protein abundance", "setting": "concentration: 0.1mM", "value": "1.01 ± 0.029"}, {"measurement": "NP40-soluble protein abundance", "setting": "concentration: 0.5mM", "value": "1.02 ± 0.059"}]}, {"target": "NSUN6 (UniProt Q8TEA1)", "values": [{"measurement": "NP40-soluble protein abundance", "setting": "concentration: 0.1mM", "value": "0.984 ± 0.028"}, {"measurement": "NP40-soluble protein abundance", "setting": "concentration: 0.5mM", "value": "0.984 ± 0.019"}]}, {"target": "UniProt Q8TD55 and related entries", "values": [{"measurement": "NP40-soluble protein abundance", "setting": "concentration: 0.1mM", "value": "0.9858 ± 0.0052"}, {"measurement": "NP40-soluble protein abundance", "setting": "concentration: 0.5mM", "value": "0.987 ± 0.015"}]}, {"target": "UniProt Q92609 and related entries", "values": [{"measurement": "NP40-soluble protein abundance", "setting": "concentration: 0.1mM", "value": "1 ± 0.017"}, {"measurement": "NP40-soluble protein abundance", "setting": "concentration: 0.5mM", "value": "1.01 ± 0.043"}]}, {"target": "NT5C (UniProt Q8TCD5)", "values": [{"measurement": "NP40-soluble protein abundance", "setting": "concentration: 0.1mM", "value": "1.03 ± 0.046"}, {"measurement": "NP40-soluble protein abundance", "setting": "concentration: 0.5mM", "value": "0.983 ± 0.016"}]}, {"target": "UniProt Q92600 and related entries", "values": [{"measurement": "NP40-soluble protein abundance", "setting": "concentration: 0.1mM", "value": "0.94 ± 0.033"}, {"measurement": "NP40-soluble protein abundance", "setting": "concentration: 0.5mM", "value": "0.981 ± 0.068"}]}, {"target": "NFATC2IP (UniProt Q8NCF5)", "values": [{"measurement": "NP40-soluble protein abundance", "setting": "concentration: 0.1mM", "value": "1.007 ± 0.0093"}, {"measurement": "NP40-soluble protein abundance", "setting": "concentration: 0.5mM", "value": "0.992 ± 0.027"}]}, {"target": "UniProt Q92688 and related entries", "values": [{"measurement": "NP40-soluble protein abundance", "setting": "concentration: 0.1mM", "value": "1.03 ± 0.049"}, {"measurement": "NP40-soluble protein abundance", "setting": "concentration: 0.5mM", "value": "1.03 ± 0.03"}]}, {"target": "NDRG1 (UniProt Q92597)", "values": [{"measurement": "NP40-soluble protein abundance", "setting": "concentration: 0.1mM", "value": "0.987 ± 0.048"}, {"measurement": "NP40-soluble protein abundance", "setting": "concentration: 0.5mM", "value": "1.01 ± 0.019"}]}, {"target": "UniProt Q92576 and related entries", "values": [{"measurement": "NP40-soluble protein abundance", "setting": "concentration: 0.1mM", "value": "0.99 ± 0.027"}, {"measurement": "NP40-soluble protein abundance", "setting": "concentration: 0.5mM", "value": "0.994 ± 0.02"}]}, {"target": "MOSPD2 (UniProt Q8NHP6)", "values": [{"measurement": "NP40-soluble protein abundance", "setting": "concentration: 0.1mM", "value": "1.01 ± 0.038"}, {"measurement": "NP40-soluble protein abundance", "setting": "concentration: 0.5mM", "value": "0.963 ± 0.029"}]}, {"target": "UniProt Q92738 and related entries", "values": [{"measurement": "NP40-soluble protein abundance", "setting": "concentration: 0.1mM", "value": "0.96 ± 0.021"}, {"measurement": "NP40-soluble protein abundance", "setting": "concentration: 0.5mM", "value": "0.969 ± 0.033"}]}, {"target": "UniProt Q92616", "values": [{"measurement": "NP40-soluble protein abundance", "setting": "concentration: 0.1mM", "value": "1.04 ± 0.021"}, {"measurement": "NP40-soluble protein abundance", "setting": "concentration: 0.5mM", "value": "1.04 ± 0.025"}]}, {"target": "CHD6 (UniProt Q8TD26)", "values": [{"measurement": "NP40-soluble protein abundance", "setting": "concentration: 0.1mM", "value": "1.01 ± 0.018"}, {"measurement": "NP40-soluble protein abundance", "setting": "concentration: 0.5mM", "value": "0.983 ± 0.047"}]}, {"target": "UBXN4 (UniProt Q92575)", "values": [{"measurement": "NP40-soluble protein abundance", "setting": "concentration: 0.1mM", "value": "0.9721 ± 0.0042"}, {"measurement": "NP40-soluble protein abundance", "setting": "concentration: 0.5mM", "value": "0.997 ± 0.073"}]}, {"target": "NUP133 (UniProt Q8WUM0)", "values": [{"measurement": "NP40-soluble protein abundance", "setting": "concentration: 0.1mM", "value": "0.988 ± 0.012"}, {"measurement": "NP40-soluble protein abundance", "setting": "concentration: 0.5mM", "value": "0.935 ± 0.041"}]}]}
